The values below come from patent US20110038885A1 (priority 2007, published 2011).

Numbered stars: 1 amine (or outer) side, 2 acyl side, 3 side chain; on linkers, the order of the positions; unused ones are H or OH. Bridge positions count the residues as written; N and C are the ends. Square brackets hold non-standard residues; d marks the D form. Ends that are not written are not given here. * marks the point of attachment. Benzoyl(4-Ph) = O=C(c1ccc(-c2ccccc2)cc1)*; Glutaryl = O=C(CCCC(=O)[*:2])[*:1]; 2Naphthoyl = O=C(c1ccc2ccccc2c1)*; Lauroyl = CCCCCCCCCCCC(=O)*; Decanoyl = CCCCCCCCCC(=O)*; Isobutyryl = CC(C)C(=O)*; Octanoyl = CCCCCCCC(=O)*; Orn = NCCC[C@H](N)C(=O)O; X5 = O=C(/C=C/c1ccccc1)*; Dab = NCC[C@H](N)C(=O)O; Dap = NC[C@H](N)C(=O)O; AEEA = NCCOCCOCC(=O)O; Aoc = NCCCCCCCC(=O)O; Ahx = NCCCCCC(=O)O; Ava = NCCCCC(=O)O; X2 = CCCCCCO*

This series in a line: general procedure: Fmoc solid-phase peptide synthesis; Rink Amide MBHA resin (0.58 mmol/g or 0.78 mmol/g); Wang resin for C-terminal acids; DIC/HOBt. To be noted: whole synthesis; for purity (crude or final not stated): scale of the general procedure 0.090 mmol.

For “H-[dC][dQ][dI][dW][dK][dQ][dK][dP][dD][dL][dC][AEEA][Aoc]-OH (disulfide 1-11; SMILES CC[C@@H](C)[C@H]1NC(=O)[C@@H](CCC(N)=O)NC(=O)[C@H](N)CSSC[C@H](C(=O)NCCOCCOCC(=O)NCCCCCCCC(=O)O)NC(=O)[C@@H](CC(C)C)NC(=O)[C@@H](CC(=O)O)NC(=O)[C@H]2CCCN2C(=O)[C@@H](CCCCN)NC(=O)[C@@H](CCC(N)=O)NC(=O)[C@@H](CCCCN)NC(=O)[C@@H](Cc2c[nH]c3ccccc23)NC1=O)”, where the note is “analytical HPLC”, the “purity (crude or final not stated)” value was 94%.
The same measure, in the same setting: under “GKWIQE-NH2 (lactam N-6; SMILES CC[C@H](C)[C@@H]1NC(=O)[C@H](Cc2c[nH]c3ccccc23)NC(=O)[C@H](CCCCN)NC(=O)CNC(=O)CC[C@@H](C(N)=O)NC(=O)[C@H](CCC(N)=O)NC1=O)” stands 98.3%; under “H-PKCQKWIQC-NH2 (disulfide 3-9; SMILES CC[C@H](C)[C@@H]1NC(=O)[C@H](Cc2c[nH]c3ccccc23)NC(=O)[C@H](CCCCN)NC(=O)[C@H](CCC(N)=O)NC(=O)[C@@H](NC(=O)[C@H](CCCCN)NC(=O)[C@@H]2CCCN2)CSSC[C@@H](C(N)=O)NC(=O)[C@H](CCC(N)=O)NC1=O)”, 97.3%; under c(Adipoyl-Lys-Trp-Ile-Gln-Orn)-NH2, 99.9%.
The same measure, in the same setting: under “[Ava][dQ][dI][dW][dK][dD]-NH2 (lactam N-6; SMILES CC[C@@H](C)[C@H]1NC(=O)[C@@H](CCC(N)=O)NC(=O)CCCCNC(=O)C[C@H](C(N)=O)NC(=O)[C@@H](CCCCN)NC(=O)[C@@H](Cc2c[nH]c3ccccc23)NC1=O)” stands 99%; under “KWIQK-NH2 (linker N-5 via Glutaryl; SMILES CC[C@H](C)[C@@H]1NC(=O)[C@H](Cc2c[nH]c3ccccc23)NC(=O)[C@H](CCCCN)NC(=O)CCCC(=O)NCCCC[C@@H](C(N)=O)NC(=O)[C@H](CCC(N)=O)NC1=O)”, 99%; under “X5-CKWIQC-NH2 (disulfide 1-6; SMILES CC[C@H](C)[C@@H]1NC(=O)[C@H](Cc2c[nH]c3ccccc23)NC(=O)[C@H](CCCCN)NC(=O)[C@@H](NC(=O)/C=C/c2ccccc2)CSSC[C@@H](C(N)=O)NC(=O)[C@H](CCC(N)=O)NC1=O)”, 95%.
On the same count and under the same terms, under “[dK](Lauroyl)DCLDPKQKWIQC-NH2 (disulfide 3-13)” stands 93%; under “Ac-CLDPKQK[dW]IQC-NH2 (disulfide 1-11; SMILES CC[C@H](C)[C@@H]1NC(=O)[C@@H](Cc2c[nH]c3ccccc23)NC(=O)[C@H](CCCCN)NC(=O)[C@H](CCC(N)=O)NC(=O)[C@H](CCCCN)NC(=O)[C@@H]2CCCN2C(=O)[C@H](CC(=O)O)NC(=O)[C@H](CC(C)C)NC(=O)[C@@H](NC(C)=O)CSSC[C@@H](C(N)=O)NC(=O)[C@H](CCC(N)=O)NC1=O)”, 88.2%; under “2Naphthoyl-CKWIQC-NH2 (disulfide 1-6; SMILES CC[C@H](C)[C@@H]1NC(=O)[C@H](Cc2c[nH]c3ccccc23)NC(=O)[C@H](CCCCN)NC(=O)[C@@H](NC(=O)c2ccc3ccccc3c2)CSSC[C@@H](C(N)=O)NC(=O)[C@H](CCC(N)=O)NC1=O)”, 95%.
“Decanoyl-CKWIQC-NH2 (disulfide 1-6; SMILES CCCCCCCCCC(=O)N[C@H]1CSSC[C@@H](C(N)=O)NC(=O)[C@H](CCC(N)=O)NC(=O)[C@H]([C@@H](C)CC)NC(=O)[C@H](Cc2c[nH]c3ccccc23)NC(=O)[C@H](CCCCN)NC1=O)”: the “purity (crude or final not stated)” value (analytical HPLC) amounted to 94%.
Still for that read-out and setting: the same measure for “H-[dC][dQ][dI][dW][dK][dQ][dK][dP][dD][dL]K(Octanoyl)[dC]-NH2 (disulfide 1-12; SMILES CCCCCCCC(=O)NCCCC[C@@H]1NC(=O)[C@@H](CC(C)C)NC(=O)[C@@H](CC(=O)O)NC(=O)[C@H]2CCCN2C(=O)[C@@H](CCCCN)NC(=O)[C@@H](CCC(N)=O)NC(=O)[C@@H](CCCCN)NC(=O)[C@@H](Cc2c[nH]c3ccccc23)NC(=O)[C@@H]([C@H](C)CC)NC(=O)[C@@H](CCC(N)=O)NC(=O)[C@H](N)CSSC[C@H](C(N)=O)NC1=O)”: 99%.
On the same count and under the same terms, under “Octanoyl-CKWIQC-NH2 (disulfide 1-6; SMILES CCCCCCCC(=O)N[C@H]1CSSC[C@@H](C(N)=O)NC(=O)[C@H](CCC(N)=O)NC(=O)[C@H]([C@@H](C)CC)NC(=O)[C@H](Cc2c[nH]c3ccccc23)NC(=O)[C@H](CCCCN)NC1=O)” stands 92%.
On the same count and under the same terms, under “Ac-CKWIQ[dC]-NH2 (disulfide 1-6; SMILES CC[C@H](C)[C@@H]1NC(=O)[C@H](Cc2c[nH]c3ccccc23)NC(=O)[C@H](CCCCN)NC(=O)[C@@H](NC(C)=O)CSSC[C@H](C(N)=O)NC(=O)[C@H](CCC(N)=O)NC1=O)” stands 91%; under “{Benzoyl(4-Ph)}-CKWIQC-NH2 (disulfide 1-6; SMILES CC[C@H](C)[C@@H]1NC(=O)[C@H](Cc2c[nH]c3ccccc23)NC(=O)[C@H](CCCCN)NC(=O)[C@@H](NC(=O)c2ccc(-c3ccccc3)cc2)CSSC[C@@H](C(N)=O)NC(=O)[C@H](CCC(N)=O)NC1=O)”, 95%.
Turning to “{CH2CO}-KWIQC-NH2 (thioether N-5; SMILES CC[C@H](C)[C@@H]1NC(=O)[C@H](Cc2c[nH]c3ccccc23)NC(=O)[C@H](CCCCN)NC(=O)CSC[C@@H](C(N)=O)NC(=O)[C@H](CCC(N)=O)NC1=O)”, the “purity (crude or final not stated)” value (analytical HPLC) was 97%.
Still for that read-out and setting: under “[Ahx]KWIQE-NH2 (lactam N-6; SMILES CC[C@H](C)[C@@H]1NC(=O)[C@H](Cc2c[nH]c3ccccc23)NC(=O)[C@H](CCCCN)NC(=O)CCCCCNC(=O)CC[C@@H](C(N)=O)NC(=O)[C@H](CCC(N)=O)NC1=O)” stands 94.4%.
For “H-[dC][dQ][dI][dW][dK][dQ][dK][dP][dD](X2)[dL][dC]-NH2 (disulfide 1-11; SMILES CCCCCCOC(=O)C[C@H]1NC(=O)[C@H]2CCCN2C(=O)[C@@H](CCCCN)NC(=O)[C@@H](CCC(N)=O)NC(=O)[C@@H](CCCCN)NC(=O)[C@@H](Cc2c[nH]c3ccccc23)NC(=O)[C@@H]([C@H](C)CC)NC(=O)[C@@H](CCC(N)=O)NC(=O)[C@H](N)CSSC[C@H](C(N)=O)NC(=O)[C@@H](CC(C)C)NC1=O)”, the “purity (crude or final not stated)” value (analytical HPLC) came to 99%.
For the substance “H-CWIQC-NH2 (disulfide 1-5; SMILES CC[C@H](C)[C@@H]1NC(=O)[C@H](Cc2c[nH]c3ccccc23)NC(=O)[C@@H](N)CSSC[C@@H](C(N)=O)NC(=O)[C@H](CCC(N)=O)NC1=O)”, where the note is “analytical HPLC, scale 0.068 mmol”, the “final HPLC purity” value was found to be 99%. Also, where the note is “scale 0.068 mmol”, the isolated mass is listed as 13.1 mg and the isolated yield result is listed as “yield=30%”.
Regarding “Isobutyryl-[Orn]KWIQD-NH2 (SMILES CC[C@H](C)[C@H](NC(=O)[C@H](Cc1c[nH]c2ccccc12)NC(=O)[C@H](CCCCN)NC(=O)[C@H](CCCN)NC(=O)C(C)C)C(=O)N[C@@H](CCC(N)=O)C(=O)N[C@@H](CC(=O)O)C(N)=O)”, the “purity (crude or final not stated)” value (analytical HPLC) is 99%.
Same read-out and setting: the same measure for “H-LDPCKQKWIQC-NH2 (disulfide 4-11; SMILES CC[C@H](C)[C@@H]1NC(=O)[C@H](Cc2c[nH]c3ccccc23)NC(=O)[C@H](CCCCN)NC(=O)[C@H](CCC(N)=O)NC(=O)[C@H](CCCCN)NC(=O)[C@@H](NC(=O)[C@@H]2CCCN2C(=O)[C@H](CC(=O)O)NC(=O)[C@@H](N)CC(C)C)CSSC[C@@H](C(N)=O)NC(=O)[C@H](CCC(N)=O)NC1=O)”: 90.2%; for “Ac-CKWI[dQ]C-NH2 (disulfide 1-6; SMILES CC[C@H](C)[C@@H]1NC(=O)[C@H](Cc2c[nH]c3ccccc23)NC(=O)[C@H](CCCCN)NC(=O)[C@@H](NC(C)=O)CSSC[C@@H](C(N)=O)NC(=O)[C@@H](CCC(N)=O)NC1=O)”: 99%.
In the case of “H-K(Lauroyl)ICLDPKQKWIQC-NH2 (disulfide 3-13; SMILES CCCCCCCCCCCC(=O)NCCCC[C@H](N)C(=O)N[C@H](C(=O)N[C@H]1CSSC[C@@H](C(N)=O)NC(=O)[C@H](CCC(N)=O)NC(=O)[C@H]([C@@H](C)CC)NC(=O)[C@H](Cc2c[nH]c3ccccc23)NC(=O)[C@H](CCCCN)NC(=O)[C@H](CCC(N)=O)NC(=O)[C@H](CCCCN)NC(=O)[C@@H]2CCCN2C(=O)[C@H](CC(=O)O)NC(=O)[C@H](CC(C)C)NC1=O)[C@@H](C)CC)”, the “purity (crude or final not stated)” value (analytical HPLC) was found to be 99%.
Same read-out and setting: the same measure for c(Adipoyl-Lys-Trp-Ile-Gln-Dap)-NH2: 99.9%; for “H-KQCKWIQC-NH2 (disulfide 3-8; SMILES CC[C@H](C)[C@@H]1NC(=O)[C@H](Cc2c[nH]c3ccccc23)NC(=O)[C@H](CCCCN)NC(=O)[C@@H](NC(=O)[C@H](CCC(N)=O)NC(=O)[C@@H](N)CCCCN)CSSC[C@@H](C(N)=O)NC(=O)[C@H](CCC(N)=O)NC1=O)”: 95%.
On to “KWIQ[Dap]-NH2 (linker N-5 via Glutaryl; SMILES CC[C@H](C)[C@@H]1NC(=O)[C@H](Cc2c[nH]c3ccccc23)NC(=O)[C@H](CCCCN)NC(=O)CCCC(=O)NC[C@@H](C(N)=O)NC(=O)[C@H](CCC(N)=O)NC1=O)”, for which the “purity (crude or final not stated)” value (analytical HPLC) worked out at 99.6%.
Still for that read-out and setting: under “H-[dC]LDPKQKWIQC[Dap]-NH2 (disulfide 1-11; SMILES CC[C@H](C)[C@@H]1NC(=O)[C@H](Cc2c[nH]c3ccccc23)NC(=O)[C@H](CCCCN)NC(=O)[C@H](CCC(N)=O)NC(=O)[C@H](CCCCN)NC(=O)[C@@H]2CCCN2C(=O)[C@H](CC(=O)O)NC(=O)[C@H](CC(C)C)NC(=O)[C@H](N)CSSC[C@@H](C(=O)N[C@@H](CN)C(N)=O)NC(=O)[C@H](CCC(N)=O)NC1=O)” stands 96.6%.
Same read-out and setting: the same measure for “Isobutyryl-[Dab]KWIQE-NH2 (lactam 1-6; SMILES CC[C@H](C)[C@@H]1NC(=O)[C@H](Cc2c[nH]c3ccccc23)NC(=O)[C@H](CCCCN)NC(=O)[C@@H](NC(=O)C(C)C)CCNC(=O)CC[C@@H](C(N)=O)NC(=O)[C@H](CCC(N)=O)NC1=O)”: 82.4%; for “[Ava]KWIQE-NH2 (lactam N-6; SMILES CC[C@H](C)[C@@H]1NC(=O)[C@H](Cc2c[nH]c3ccccc23)NC(=O)[C@H](CCCCN)NC(=O)CCCCNC(=O)CC[C@@H](C(N)=O)NC(=O)[C@H](CCC(N)=O)NC1=O)”: 95.4%.
